No constants are given. Whether binding was seen depends on the method and setting. In cells and extracts the contact can be indirect. Some entries that bind do so weakly or less than the wild type.
What was measured:
[1] = biological target: Parkin (human (endogenous in platelets)) (UniProt O60260); assay: co-IP; healthy control and DM human platelet lysates with the specific antibody (MsrB2 or Parkin) overnight at 4°C, protein A/G sepharose beads 1 h at 4°C, three washes with lysis buffer, Western blot
[2] = biological target: methionine sulfoxide reductase B2 (MsrB2) (human (endogenous in platelets)) (UniProt Q9Y3D2); assay: as above

The chains behind the UniProt entries cited, without tags or fusion partners. Residues count along the entry.
UniProt O60260: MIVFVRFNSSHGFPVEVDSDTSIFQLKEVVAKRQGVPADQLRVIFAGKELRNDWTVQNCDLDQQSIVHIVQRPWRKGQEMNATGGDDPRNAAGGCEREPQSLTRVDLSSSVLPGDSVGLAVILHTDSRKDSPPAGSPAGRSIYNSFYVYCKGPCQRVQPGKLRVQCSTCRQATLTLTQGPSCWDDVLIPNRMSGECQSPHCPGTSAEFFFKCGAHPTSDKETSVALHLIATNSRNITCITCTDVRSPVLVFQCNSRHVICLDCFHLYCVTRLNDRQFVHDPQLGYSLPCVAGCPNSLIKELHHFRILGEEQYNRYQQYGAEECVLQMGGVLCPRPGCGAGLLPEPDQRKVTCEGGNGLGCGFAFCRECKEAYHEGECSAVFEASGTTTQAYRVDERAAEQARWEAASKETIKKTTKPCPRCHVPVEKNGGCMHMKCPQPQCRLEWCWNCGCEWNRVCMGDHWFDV
UniProt Q9Y3D2, residues 21-182: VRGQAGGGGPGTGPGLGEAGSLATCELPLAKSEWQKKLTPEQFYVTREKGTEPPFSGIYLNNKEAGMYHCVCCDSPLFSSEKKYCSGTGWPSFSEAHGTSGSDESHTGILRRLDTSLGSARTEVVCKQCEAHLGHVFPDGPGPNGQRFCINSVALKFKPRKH

binding [1]	binding [2]	Substance
binds	–	methionine sulfoxide reductase B2 (MsrB2) (from UniProt Q9Y3D2 21-182)
–	binds	Parkin (from UniProt O60260 1-465)

From publication PMC6685081
